In the assay the target is His-tagged CP47 protein of Photosystem II (Synechocystis sp. PCC 6803, strain HT3) (Synechocystis sp. PCC 6803), P05429. In words: pull-down; PSII with His-tagged CP47 purified from Synechocystis 6803 HT3 cells on a Ni-NTA column (washes with 15 and 35 mM imidazole, elution with 100 mM imidazole in buffer A, pH 6.0, 0.04% dodecyl maltoside); the eluted fraction analysed by SDS-PAGE and immunoblot. To be noted: remark: other sources report otherwise. Background: Immunoblotting shows a protein as a band on a membrane.

This note sets out measurements from paper PMC3446894.

No constants are given. Whether binding was seen depends on the method and setting. Binding seen in cells or lysates may run through a third protein. Some binding calls cover weakened binding; strength is not graded here.

B1: PsbO, extrinsic protein of the PSII oxygen-evolving complex (Synechocystis sp. PCC 6803), P10549 29-274 (protein)
chain: VDKSQLTYDDIVNTGLANVCPEISSFTRGTIEVEPNTKYFVSDFCMEPQEYFVKEEPVNKRQKAEYVKGKVLTRQTTSLEQIRGSIAVGADGTLTFKEKDGIDFQPITVLLPGGEEVPFFFTVKNFTGTTEPGFTSINSSTDFVGDFNVPSYRGAGFLDPKARGLYTGYDNAVALPSAADKFRTNKKETPLGKGTLSLQVTQVDGSTGEIAGIFESEQPSDTDLGAKEPLDVKVRGIFYGRVDTDV
As for B1, the binding result is “binds”.
